PubChem BioAssay AID1259254, NCATS – 2017
The deposit covers about 59,000 reagents; shown is a random part of them. Over the whole deposit, about 1,550 (2.6%) were called active. 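G2 share is only a proxy for re-replication; each gene was hit by three separate siRNAs, and active genes were retested.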 A number with no mark means an inactive call. The numbers tell different reagents against one gene apart. Not all columns of the deposit are shown. Not given: the amount of reagent.

Test: 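Finding genes that stop cells copying their DNA twice in one cycle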 (primary screen)
Cell system: human HCT116 colorectal cancer cells
Knock-down reagent: single siRNA against human genes
Duration: 3 days
Read-out: 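Nuclei stained with Hoechst and imaged; cell-cycle phase assigned by DNA content; G2 share scaled per plate, non-targeting siRNA 0%, GMNN siRNA 100%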
Scale: G2 robust z-score and G2 cells, % of GMNN control: higher = more G2 cells, more excess DNA replication
Active means: 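An siRNA counts as active if its G2 robust z-score lies at least 5 MADs above the screen median; here such calls match roughly 38% of GMNN control or more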

Target gene	siRNA no.	G2 robust z-score	G2 cells, % of GMNN control
CALM2	1	4.28	33.1
CALM2	2	1.71	15
CALM2	3	0.14	3.95
PHKA1P1	1	3.42	27.1
PHKA1P1	2	0.85	8.94
PHKA1P1	3	-0.594	-1.21
DPP8	1	0.492	6.43
DPP8	2	-0.102	2.25
DPP8	3	-1.07	-4.57
ADRB3	1	-0.198	1.58
ADRB3	2	1.29	12
ADRB3	3	0.174	4.19
AKAP7	1	-0.321	0.708
AKAP7	2	-1.47	-7.37
AKAP7	3	0.232	4.6
RBM18	1	-0.142	1.97
RBM18	2	4.24	32.8
RBM18	3	-0.0894	2.34
EFNA1	1	0.713	7.98
EFNA1	2	0.153	4.05
EFNA1	3	0.397	5.76
SULT1B1	1	-1.1	-4.76
SULT1B1	2	-0.732	-2.18
SULT1B1	3	-0.365	0.402
NRL	1	-0.432	-0.0749
NRL	2	1.23	11.6
NRL	3	0.888	9.21
LYPLAL1-DT	1	0.329	5.29
LYPLAL1-DT	2	0.671	7.69
LYPLAL1-DT	3	-0.496	-0.523
TMEM62	1	0.215	4.48
TMEM62	2	1.03	10.2
TMEM62	3	-0.0652	2.51
HAUS3	1	-0.555	-0.937
HAUS3	2	2.59	21.2
HAUS3	3	-0.619	-1.39
GAD1	1	-1.08	-4.65
GAD1	2	-0.546	-0.874
GAD1	3	0.0876	3.58
SHB	1	-0.446	-0.169
SHB	2	-0.0695	2.48
SHB	3	-0.326	0.673
SPART-AS1	1	-0.0162	2.85
SPART-AS1	2	2.12	17.9
SPART-AS1	3	-0.278	1.01
GLRX5	1	-0.591	-1.19
GLRX5	2	-0.0869	2.36
GLRX5	3	1.05	10.3
PCDHA9	1	-0.286	0.958
PCDHA9	2	-0.654	-1.63
PCDHA9	3	-0.328	0.657
FCHSD1	1	-0.0623	2.53
FCHSD1	2	-0.772	-2.46
FCHSD1	3	-0.898	-3.35
KRT18	1	-0.704	-1.99
KRT18	2	-0.807	-2.71
KRT18	3	1.43	13
CXCR2	1	-1.36	-6.59
CXCR2	2	-1.11	-4.83
CXCR2	3	0.556	6.88
RPL39L	1	-0.381	0.29
RPL39L	2	0.112	3.75
RPL39L	3	-1.02	-4.22
EPS15L1	1	-0.271	1.06
EPS15L1	2	0.669	7.67
EPS15L1	3	0.607	7.24
AZI2	1	-0.226	1.37
AZI2	2	1.3	12.1
AZI2	3	-0.0987	2.27
